# Measured values taken from the supplement of paper PMC6411743.
# ± gives the standard deviation of the averaged measurements. This is a selection; strong and weak results do not stand in their true shares.
# Key:
# Experiment in all cases: NP40-soluble protein abundance relative to vehicle (solubility fold change) (ratio); higher = more soluble protein in presence of AMP-PNP
# [1] = target: T1, E5RIS3 and related entries (UniProt Q8TCF1)
# T1 sequence (whole entry): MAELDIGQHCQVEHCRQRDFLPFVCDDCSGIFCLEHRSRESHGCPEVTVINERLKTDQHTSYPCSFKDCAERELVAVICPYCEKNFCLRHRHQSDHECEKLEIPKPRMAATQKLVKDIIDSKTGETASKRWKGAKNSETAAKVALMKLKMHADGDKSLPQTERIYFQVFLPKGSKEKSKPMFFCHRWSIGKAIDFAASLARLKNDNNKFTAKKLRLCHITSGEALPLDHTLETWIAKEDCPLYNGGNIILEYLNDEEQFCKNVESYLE
# Summary of the method: (§1)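 Jurkat crude lysate (Dounce-homogenised) was treated with eight concentrations from 0.1 to 10 mM for 10 min at room temperature, then 3 min at 37 °C. It was solubilised with 0.8% NP40 and benzonase (60 min, 4 °C) and ultracentrifuged, and the supernatant was TMT-labelled for LC-MS/MS. Intensities were vsn-normalised, and the value is the fold change against the NP40-processed vehicle per replicate, from three independent experiments.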
# [2] = target: T2, E7EMK3 and related entries (UniProt Q14254)
# T2 sequence (whole entry): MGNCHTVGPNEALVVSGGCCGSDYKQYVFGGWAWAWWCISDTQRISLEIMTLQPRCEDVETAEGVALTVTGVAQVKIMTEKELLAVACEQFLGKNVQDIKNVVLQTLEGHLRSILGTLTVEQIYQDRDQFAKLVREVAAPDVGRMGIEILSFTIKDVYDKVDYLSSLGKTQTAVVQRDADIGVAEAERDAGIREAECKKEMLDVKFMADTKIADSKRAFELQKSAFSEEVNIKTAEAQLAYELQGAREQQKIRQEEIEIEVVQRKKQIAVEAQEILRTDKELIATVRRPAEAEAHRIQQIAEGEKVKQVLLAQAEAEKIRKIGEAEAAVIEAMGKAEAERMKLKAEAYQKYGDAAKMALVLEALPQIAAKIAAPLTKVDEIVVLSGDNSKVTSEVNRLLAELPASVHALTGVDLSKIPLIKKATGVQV
# Summary of the method: as §1
# [3] = target: T3, E7EQU1 and related entries (UniProt O15347)
# T3 sequence (whole entry): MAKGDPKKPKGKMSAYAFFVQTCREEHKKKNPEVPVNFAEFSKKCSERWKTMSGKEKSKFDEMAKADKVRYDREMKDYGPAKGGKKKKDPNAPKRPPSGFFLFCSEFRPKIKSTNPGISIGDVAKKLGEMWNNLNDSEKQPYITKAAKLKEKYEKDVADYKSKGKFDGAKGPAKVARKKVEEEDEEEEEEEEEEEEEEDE
# Summary of the method: as §1
# [4] = target: T4, E7EUY3 and related entries (UniProt P05166)
# T4 sequence (whole entry): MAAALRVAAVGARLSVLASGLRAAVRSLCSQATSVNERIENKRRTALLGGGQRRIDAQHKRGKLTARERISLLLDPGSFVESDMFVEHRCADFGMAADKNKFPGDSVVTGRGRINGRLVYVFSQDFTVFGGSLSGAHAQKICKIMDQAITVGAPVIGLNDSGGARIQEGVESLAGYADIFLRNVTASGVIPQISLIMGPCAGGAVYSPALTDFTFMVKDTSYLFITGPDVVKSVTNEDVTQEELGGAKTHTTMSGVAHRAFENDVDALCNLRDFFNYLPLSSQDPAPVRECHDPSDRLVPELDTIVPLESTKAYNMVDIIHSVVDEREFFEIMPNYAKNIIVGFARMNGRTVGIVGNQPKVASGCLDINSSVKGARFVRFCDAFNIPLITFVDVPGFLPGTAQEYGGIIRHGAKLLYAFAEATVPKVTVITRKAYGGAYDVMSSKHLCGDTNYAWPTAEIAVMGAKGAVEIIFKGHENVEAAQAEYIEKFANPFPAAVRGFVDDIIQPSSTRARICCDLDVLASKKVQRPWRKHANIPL
# Summary of the method: as §1
# [5] = target: T5, E9PCW1 and related entries (UniProt O95249)
# T5 sequence (whole entry): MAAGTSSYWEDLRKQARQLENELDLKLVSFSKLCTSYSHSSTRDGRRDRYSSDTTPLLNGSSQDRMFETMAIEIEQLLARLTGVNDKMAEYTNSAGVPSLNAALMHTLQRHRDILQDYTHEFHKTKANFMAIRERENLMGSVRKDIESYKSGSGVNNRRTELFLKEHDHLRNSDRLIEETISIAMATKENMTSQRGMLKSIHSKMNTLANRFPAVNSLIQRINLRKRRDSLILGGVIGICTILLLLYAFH
# Summary of the method: as §1
# [6] = target: T6, E9PH99 and related entries (UniProt Q9Y4E5)
# T6 sequence (whole entry): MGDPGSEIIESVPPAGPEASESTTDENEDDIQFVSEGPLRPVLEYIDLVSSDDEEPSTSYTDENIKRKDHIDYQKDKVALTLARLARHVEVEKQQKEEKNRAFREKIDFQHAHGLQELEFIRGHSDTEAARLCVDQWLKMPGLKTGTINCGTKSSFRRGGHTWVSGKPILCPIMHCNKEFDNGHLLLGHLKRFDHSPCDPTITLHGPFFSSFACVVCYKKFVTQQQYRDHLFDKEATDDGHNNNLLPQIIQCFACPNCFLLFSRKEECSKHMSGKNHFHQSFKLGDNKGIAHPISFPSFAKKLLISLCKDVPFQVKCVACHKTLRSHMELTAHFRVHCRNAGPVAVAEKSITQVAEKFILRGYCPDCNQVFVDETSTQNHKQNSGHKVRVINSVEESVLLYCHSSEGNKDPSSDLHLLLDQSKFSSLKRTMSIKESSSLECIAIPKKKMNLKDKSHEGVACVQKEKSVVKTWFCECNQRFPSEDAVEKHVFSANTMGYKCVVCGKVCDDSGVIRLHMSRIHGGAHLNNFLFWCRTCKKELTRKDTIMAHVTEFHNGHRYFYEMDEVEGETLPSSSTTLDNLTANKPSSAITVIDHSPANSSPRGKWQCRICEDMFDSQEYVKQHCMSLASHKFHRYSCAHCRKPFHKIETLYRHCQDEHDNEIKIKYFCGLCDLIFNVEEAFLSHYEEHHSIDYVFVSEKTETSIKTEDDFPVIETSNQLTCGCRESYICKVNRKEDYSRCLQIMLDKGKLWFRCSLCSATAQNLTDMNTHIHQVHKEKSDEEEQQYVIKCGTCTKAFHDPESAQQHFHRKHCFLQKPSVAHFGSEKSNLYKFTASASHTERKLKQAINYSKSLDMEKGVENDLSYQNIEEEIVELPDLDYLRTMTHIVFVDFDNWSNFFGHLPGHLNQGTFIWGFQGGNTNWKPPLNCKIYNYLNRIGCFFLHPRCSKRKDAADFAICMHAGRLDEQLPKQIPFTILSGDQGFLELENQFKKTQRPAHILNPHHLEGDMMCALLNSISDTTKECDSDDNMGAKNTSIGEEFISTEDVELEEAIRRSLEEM
# Summary of the method: as §1
# [7] = target: T7, E9PIV2 and related entries (UniProt P24001)
# T7 sequence (whole entry): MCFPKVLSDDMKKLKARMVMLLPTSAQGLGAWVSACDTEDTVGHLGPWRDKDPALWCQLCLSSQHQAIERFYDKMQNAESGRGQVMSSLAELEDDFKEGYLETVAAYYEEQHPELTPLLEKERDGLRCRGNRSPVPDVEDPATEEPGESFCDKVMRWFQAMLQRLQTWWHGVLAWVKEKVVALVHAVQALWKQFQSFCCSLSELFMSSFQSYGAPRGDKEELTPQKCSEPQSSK
# Summary of the method: as §1
smiles,measurement,setting,value
Nc1ncnc2c1ncn2[C@@H]1O[C@H](COP(=O)(O)OP(=O)(O)NP(=O)(O)O)[C@@H](O)[C@H]1O [adenylyl imidodiphosphate],NP40-soluble protein abundance,[1]; concentration: 1mM,1 ± 0.044
same,NP40-soluble protein abundance,[1]; concentration: 2mM,1.03 ± 0.048
same,NP40-soluble protein abundance,[1]; concentration: 4mM,0.995 ± 0.041
same,NP40-soluble protein abundance,[1]; concentration: 6mM,0.996 ± 0.017
same,NP40-soluble protein abundance,[1]; concentration: 8mM,0.967 ± 0.031
same,NP40-soluble protein abundance,[1]; concentration: 10mM,0.995 ± 0.049
same,NP40-soluble protein abundance,[2]; concentration: 1mM,1.02 ± 0.12
same,NP40-soluble protein abundance,[2]; concentration: 2mM,0.981 ± 0.09
same,NP40-soluble protein abundance,[2]; concentration: 4mM,0.985 ± 0.12
same,NP40-soluble protein abundance,[2]; concentration: 6mM,0.98 ± 0.14
same,NP40-soluble protein abundance,[2]; concentration: 8mM,0.953 ± 0.1
same,NP40-soluble protein abundance,[2]; concentration: 10mM,0.956 ± 0.11
same,NP40-soluble protein abundance,[3]; concentration: 1mM,1.06 ± 0.11
same,NP40-soluble protein abundance,[3]; concentration: 2mM,1.15 ± 0.06
same,NP40-soluble protein abundance,[3]; concentration: 4mM,1.01 ± 0.085
same,NP40-soluble protein abundance,[3]; concentration: 6mM,1.08 ± 0.065
same,NP40-soluble protein abundance,[3]; concentration: 8mM,1.08 ± 0.048
same,NP40-soluble protein abundance,[3]; concentration: 10mM,1.1 ± 0.09
same,NP40-soluble protein abundance,[4]; concentration: 1mM,0.966 ± 0.022
same,NP40-soluble protein abundance,[4]; concentration: 2mM,0.982 ± 0.048
same,NP40-soluble protein abundance,[4]; concentration: 4mM,0.966 ± 0.032
same,NP40-soluble protein abundance,[4]; concentration: 6mM,0.946 ± 0.041
same,NP40-soluble protein abundance,[4]; concentration: 8mM,0.936 ± 0.051
same,NP40-soluble protein abundance,[4]; concentration: 10mM,0.949 ± 0.059
same,NP40-soluble protein abundance,[5]; concentration: 1mM,0.991 ± 0.024
same,NP40-soluble protein abundance,[5]; concentration: 2mM,1.01 ± 0.034
same,NP40-soluble protein abundance,[5]; concentration: 4mM,0.975 ± 0.014
same,NP40-soluble protein abundance,[5]; concentration: 6mM,0.987 ± 0.015
same,NP40-soluble protein abundance,[5]; concentration: 8mM,0.98 ± 0.023
same,NP40-soluble protein abundance,[5]; concentration: 10mM,0.971 ± 0.031
same,NP40-soluble protein abundance,[6]; concentration: 1mM,1.06 ± 0.013
same,NP40-soluble protein abundance,[6]; concentration: 2mM,1.03 ± 0.025
same,NP40-soluble protein abundance,[6]; concentration: 4mM,1.04 ± 0.029
same,NP40-soluble protein abundance,[6]; concentration: 6mM,1.01 ± 0.026
same,NP40-soluble protein abundance,[6]; concentration: 8mM,1.03 ± 0.017
same,NP40-soluble protein abundance,[6]; concentration: 10mM,1.01 ± 0.014
same,NP40-soluble protein abundance,[7]; concentration: 1mM,0.987 ± 0.015
same,NP40-soluble protein abundance,[7]; concentration: 2mM,1.01 ± 0.034
same,NP40-soluble protein abundance,[7]; concentration: 4mM,0.964 ± 0.01

# Reformatted with tabs: entries from further up
smiles	measurement	setting	value
Nc1ncnc2c1ncn2[C@@H]1O[C@H](COP(=O)(O)OP(=O)(O)NP(=O)(O)O)[C@@H](O)[C@H]1O [adenylyl imidodiphosphate]	NP40-soluble protein abundance	[4]; concentration: 10mM	0.949 ± 0.059
same	NP40-soluble protein abundance	[5]; concentration: 1mM	0.991 ± 0.024
